Laboratory results: PubChem BioAssay AID1259425 (University of Nebraska Medical Center, 2018)
Here is an unselected part of about 14,000 reagents tested. Further read-outs or replicates are left out here. No sequences are given here. Not stated in the record: the time to read-out.

Aim: 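Find knockdowns that reproduce the gene expression pattern seen when KSR1 is lost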 (primary screen)
System: HCT116 human colon cancer cells
Knock-down reagent: siRNA pool against human genes, 50 nM siRNA
Read-out: 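After 50 nM siRNA pool, branched-DNA assay measures six marker transcripts per well, minus blank, normalised to the geometric mean of two housekeeping transcripts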
Scale: BNIP3L mRNA: higher = more BNIP3L transcript after knockdown; NDRG1 mRNA: higher = more NDRG1 transcript after knockdown

IRAK1 (interleukin 1 receptor associated kinase 1) [SID363992825] → BNIP3L mRNA, set 1 = 0.0994; NDRG1 mRNA, set 1 = 0.132
KLC2 (kinesin light chain 2) [SID364002566] → BNIP3L mRNA, set 1 = 0.0924; NDRG1 mRNA, set 1 = 0.0977
RPE65 (retinoid isomerohydrolase RPE65) [SID363991661] → BNIP3L mRNA, set 1 = -0.0146; NDRG1 mRNA, set 1 = -0.028
BRS3 (bombesin receptor subtype 3) [SID363992948] → BNIP3L mRNA, set 1 = 0.108; NDRG1 mRNA, set 1 = 0.0885
VHL (von Hippel-Lindau tumor suppressor) [SID363991874] → BNIP3L mRNA, set 1 = 0.0682; NDRG1 mRNA, set 1 = 0.166
SRP72 (signal recognition particle 72) [SID363997699] → BNIP3L mRNA, set 1 = 0.0623; NDRG1 mRNA, set 1 = 0.406
NRXN1 (neurexin 1) [SID363995756] → BNIP3L mRNA, set 1 = 0.158; NDRG1 mRNA, set 1 = 0.224
SPATA3 (spermatogenesis associated 3) [SID364004595] → BNIP3L mRNA, set 1 = 0.11; NDRG1 mRNA, set 1 = 0.159
RIPPLY3 (ripply transcriptional repressor 3) [SID364001288] → BNIP3L mRNA, set 1 = 0.113; NDRG1 mRNA, set 1 = 0.132
FPR1 (formyl peptide receptor 1) [SID363993239] → BNIP3L mRNA, set 1 = 0.151; NDRG1 mRNA, set 1 = 0.142
UPK1A (uroplakin 1A) [SID363997737] → BNIP3L mRNA, set 1 = 0.109; NDRG1 mRNA, set 1 = 0.182
PRUNE2 (prune homolog 2 with BCH domain) [SID364005133] → BNIP3L mRNA, set 1 = 0.0649; NDRG1 mRNA, set 1 = 0.0441
PRKG2 (protein kinase cGMP-dependent 2) [SID363997082] → BNIP3L mRNA, set 1 = 0.0805; NDRG1 mRNA, set 1 = 0.0734
TINAGL1 (tubulointerstitial nephritis antigen like 1) [SID364002387] → BNIP3L mRNA, set 1 = 0.179; NDRG1 mRNA, set 1 = 0.221
WDR93 (WD repeat domain 93) [SID364001564] → BNIP3L mRNA, set 1 = 0.152; NDRG1 mRNA, set 1 = 0.51
PROK1 (prokineticin 1) [SID364003971] → BNIP3L mRNA, set 1 = 0.216; NDRG1 mRNA, set 1 = 0.453
HLX (H2.0 like homeobox) [SID364002249] → BNIP3L mRNA, set 1 = 0.0763; NDRG1 mRNA, set 1 = 0.0931
ACADL (acyl-CoA dehydrogenase long chain) [SID363992835] → BNIP3L mRNA, set 1 = 0.106; NDRG1 mRNA, set 1 = 0.534
KIF25 (kinesin family member 25) [SID363996266] → BNIP3L mRNA, set 1 = 0.0629; NDRG1 mRNA, set 1 = 0.301

3 consecutive entries already listed, for reference:
NRXN1 (neurexin 1) [SID363995756] → BNIP3L mRNA, set 1 = 0.158; NDRG1 mRNA, set 1 = 0.224
SPATA3 (spermatogenesis associated 3) [SID364004595] → BNIP3L mRNA, set 1 = 0.11; NDRG1 mRNA, set 1 = 0.159
RIPPLY3 (ripply transcriptional repressor 3) [SID364001288] → BNIP3L mRNA, set 1 = 0.113; NDRG1 mRNA, set 1 = 0.132
